Among the data in PMC5807052, “Robo1 Forms a Compact Dimer-of-Dimers Assembly” (Structure(London, England:1993), 2018) are binding values, retold here.

Amino acid sequences for entries named in this document (tags omitted). A change or cut given only in a name is not applied to a line headed by its entry. Residues count along the entry.
UniProt Q9Y6N7: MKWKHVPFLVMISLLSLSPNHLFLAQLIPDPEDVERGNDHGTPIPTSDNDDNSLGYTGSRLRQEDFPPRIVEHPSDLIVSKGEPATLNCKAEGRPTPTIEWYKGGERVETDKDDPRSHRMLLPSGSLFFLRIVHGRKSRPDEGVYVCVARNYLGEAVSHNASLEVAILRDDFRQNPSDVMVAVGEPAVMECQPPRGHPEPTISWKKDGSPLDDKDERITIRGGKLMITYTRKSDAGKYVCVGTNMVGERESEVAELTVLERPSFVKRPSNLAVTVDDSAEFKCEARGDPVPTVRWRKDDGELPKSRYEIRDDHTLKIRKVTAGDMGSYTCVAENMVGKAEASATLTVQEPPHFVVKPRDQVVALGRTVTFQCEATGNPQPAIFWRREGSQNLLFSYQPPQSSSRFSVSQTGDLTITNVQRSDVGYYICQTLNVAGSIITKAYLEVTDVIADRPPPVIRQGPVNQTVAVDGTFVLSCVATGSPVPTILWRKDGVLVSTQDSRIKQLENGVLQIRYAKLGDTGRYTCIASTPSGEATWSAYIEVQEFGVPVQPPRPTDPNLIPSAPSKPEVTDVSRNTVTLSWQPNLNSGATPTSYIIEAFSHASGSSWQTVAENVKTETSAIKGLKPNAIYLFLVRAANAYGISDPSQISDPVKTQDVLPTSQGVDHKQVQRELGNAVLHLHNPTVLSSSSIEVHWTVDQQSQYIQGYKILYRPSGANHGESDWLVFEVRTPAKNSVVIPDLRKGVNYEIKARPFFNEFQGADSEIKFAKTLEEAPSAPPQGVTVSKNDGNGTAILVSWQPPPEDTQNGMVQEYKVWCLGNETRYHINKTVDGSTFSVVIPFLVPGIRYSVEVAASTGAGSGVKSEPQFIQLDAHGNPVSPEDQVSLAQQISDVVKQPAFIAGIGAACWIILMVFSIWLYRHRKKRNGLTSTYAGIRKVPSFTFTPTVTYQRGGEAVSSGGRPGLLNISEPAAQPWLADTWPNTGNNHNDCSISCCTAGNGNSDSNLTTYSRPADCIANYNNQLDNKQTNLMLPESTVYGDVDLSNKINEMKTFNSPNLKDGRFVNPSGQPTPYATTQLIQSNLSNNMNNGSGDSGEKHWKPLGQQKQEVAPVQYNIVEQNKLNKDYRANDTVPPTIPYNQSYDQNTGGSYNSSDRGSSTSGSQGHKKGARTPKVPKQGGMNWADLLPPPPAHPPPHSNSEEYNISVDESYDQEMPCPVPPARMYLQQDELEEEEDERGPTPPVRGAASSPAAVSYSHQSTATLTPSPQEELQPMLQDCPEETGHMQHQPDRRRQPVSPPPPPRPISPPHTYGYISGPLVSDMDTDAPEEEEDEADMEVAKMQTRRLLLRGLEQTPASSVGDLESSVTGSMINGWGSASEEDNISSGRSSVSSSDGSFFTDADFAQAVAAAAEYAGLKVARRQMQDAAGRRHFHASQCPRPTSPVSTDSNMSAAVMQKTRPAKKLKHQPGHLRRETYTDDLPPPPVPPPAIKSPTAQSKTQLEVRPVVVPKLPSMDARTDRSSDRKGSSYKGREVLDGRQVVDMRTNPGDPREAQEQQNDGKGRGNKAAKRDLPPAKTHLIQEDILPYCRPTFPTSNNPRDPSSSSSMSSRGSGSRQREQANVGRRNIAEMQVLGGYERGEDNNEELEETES
Full length Robo1 (residues 1-1651), as Robo1-EGFP and Robo1-mCherry: residues 26-1651 of Q9Y6N7
Robo1 Ig1-5 (human Robo1 residues 61-543): residues 61-543 of Q9Y6N7
Robo1 Ig1-4 (human Robo1 residues 61-446): residues 61-446 of Q9Y6N7

Experiment [1] addresses Full length Robo1 (residues 1-1651), as Robo1-EGFP and Robo1-mCherry (human) (UniProt Q9Y6N7). Description: proximity ligation; HEK-293T co-transfected with Robo1-EGFP and Robo1-mCherry; fixed, permeabilised; anti-GFP JL-8 and anti-DsRed antibodies, DuoLink II; cells treated with PBS or 0.1 uM mouse Slit2-N for 30 min.
The target in experiment [2] is Robo1 Ig1-4 (human Robo1 residues 61-446) (human) (UniProt Q9Y6N7). The experiment is described as follows: SAXS; EMBL X33 beamline, 1 to 4 mg/mL, 10 °C; data at the lowest concentrations used; both purified.
Experiment [3] deals with Robo1 Ig1-5 (human Robo1 residues 61-543) (human) (UniProt Q9Y6N7). The description is as above.

These are yes or no findings as the source states them, for the method shown. For part of these data: In cells and extracts the contact can be indirect. Some results given as binding are weak or reduced against the parent protein; the word gives no strength.

For the substance “Full length Robo1 (residues 1-1651), as Robo1-EGFP and Robo1-mCherry (from UniProt Q9Y6N7-1 26-1651) (receptor)”, in experiment [1], the binding entry is “binds”.
In the case of “Robo1 Ig1-4 (human Robo1 residues 61-446) (from UniProt Q9Y6N7-1 61-446) (domain or fragment)”, the binding result in experiment [2] is reported as “no binding (tested: 1 to 4 mg/mL)”.
For the substance “Robo1 Ig1-5 (human Robo1 residues 61-543) (from UniProt Q9Y6N7-1 61-543) (domain or fragment)”, the binding entry in experiment [3] was “no binding (tested: 1 to 4 mg/mL)”.
